# For some of these results: At least one peptide structure holds a part that was inferred or is arguable (an end, a ring closure or a residue). For some of these results: At least one structure is not confirmed: it was looked up by name or label, or the drawing left a doubt. Some of these results come from one statement about several compounds together.
# Protein sequences, listed by entry. Tags and fused reporters are not part of them. Lines headed by an entry give the natural chain unless they say otherwise; changes in a name come on top.
# UniProt P04978: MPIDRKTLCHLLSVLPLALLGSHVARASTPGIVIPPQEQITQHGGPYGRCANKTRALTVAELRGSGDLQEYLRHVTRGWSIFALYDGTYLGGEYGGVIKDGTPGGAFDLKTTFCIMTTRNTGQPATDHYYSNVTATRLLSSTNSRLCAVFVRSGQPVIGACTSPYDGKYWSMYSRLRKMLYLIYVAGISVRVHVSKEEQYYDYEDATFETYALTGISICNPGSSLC
# Assays:
# Balb/c mice [1] = experiment: DTH inflammatory response, mouse footpad swelling assay; type: in vivo; settings: 100 μg peptide into the tail vein 5 hours after challenge with 20 μg OVA; FIG. 2
# Protocol: DTH inflammatory responses were measured using the mouse footpad swelling assay as described by Smith and Ziola^64. Briefly, groups of Balb/c mice (about 19-20 grams each) were immunized with 100 μg of the OVA antigen containing 20μg of the adjuvant (DDA—dimethyl-dioctadecylammonium bromide) which also induces a strong inflammatory DTH response. Seven days later, each group of mice was footpad-challenged with 20 μg of the OVA antigen (without adjuvant). The resulting inflammatory footpad swelling was measured with a Mitutoyo Engineering micrometer 24 hours after challenge.
# To assess the effect of different peptides on the inflammatory DTH response, groups of mice received 100 μg of the following peptides- ACS2P1 (2275), SPYGRC (2283), and S3P9a. These peptides were injected as a solution into the tail vein, 5 hours after challenge. Control groups were left untreated or received 100 μL of phosphate-buffered saline (PBS).
# [2] = tested on: pertussis toxin binding to Chinese Hamster ovary (CHO) cell; experiment: CHO cell neutralization of pertussis toxin (cell clumping); type: cell-based; settings: PT 2.4 ng/ml, peptide and PT 1 hour, triplicate
# Protocol: Confluent monolayers of CHO cells were lifted from plastic tissue culture flasks with 0.25% trypsin and suspended at a concentration of 5×10^4 cells/ml in Ham's F12 media containing 10% fetal bovine serum (FBS). 100 μl of the cell suspension was added to 96 well tissue culture plates and were allowed to establish contact with the plastic for 24 to 48 hours. The expended media was then removed and filtered-sterilized peptide 5-fold dilutions ranging in concentration from 300 to 30 femptogram per ml (80 μl) in Ham' F12 media containing FBS were added to the CHO cells. […] The incubation mixtures were gently mixed and incubated at 37° C. for 1 hour in a CO2 incubator. The incubation mixtures were then removed and replaced with fresh media. The tissue culture plates were then incubated for 24 hours at 37° C., fixed with 100% methanol, and stained with Geimsa stain. Control experiments were done in the absence of peptide alone or in the absence of PT. All determinations were done in triplicate. […] The results reported in Table VIII show the maximum peptide concentration required to cause a 50% reduction in CHO cell clumping.
# [3] = biological target: T1, ACS2P1-biotin binding to asialofetuin (Bos taurus, UniProt P12763); experiment: Screening of S2 and S3 peptides for inhibition of ACS2P1-biotin binding to asialofetuin
# T1 construct: made in house
# T1 sequence (P12763 19-359): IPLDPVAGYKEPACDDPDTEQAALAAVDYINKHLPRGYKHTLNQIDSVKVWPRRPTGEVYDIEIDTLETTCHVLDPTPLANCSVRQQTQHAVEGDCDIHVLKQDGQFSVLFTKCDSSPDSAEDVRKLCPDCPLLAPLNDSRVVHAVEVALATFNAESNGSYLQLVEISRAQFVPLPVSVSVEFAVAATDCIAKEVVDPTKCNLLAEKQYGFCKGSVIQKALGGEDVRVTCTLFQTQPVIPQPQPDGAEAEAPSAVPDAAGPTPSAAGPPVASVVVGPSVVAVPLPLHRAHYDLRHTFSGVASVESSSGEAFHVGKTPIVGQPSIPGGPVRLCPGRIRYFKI
# Balb/c mice [4] = experiment: Persistence of suppression of DTH response on OVA re-challenge at 2 weeks; type: in vivo; settings: mice treated as in Example 11, re-challenged at 2 weeks; FIG. 3
# From the text: Identical groups of mice treated with the peptides in Example 11 above, were re-challenged with OVA antigen 2 weeks after primary immunization.
# [5] = biological target: T2, PT-biotin binding to fetuin (Bos taurus, UniProt P12763); experiment: PT-biotin binding to fetuin, binding inhibition assay; design: species or system Bordetella pertussis; settings: initial peptide screening
# T2 construct: purchased Sigma Chemical Company (fetuin); Connaught Center for Biotechnology Research (PT)
# T2 sequence (P12763 19-359): T1 sequence (P12763 19-359)
# Protocol: (§1) Peptides ranging in concentration from 0.5 to 4.5 mg/ml in PBS (40 μl) were added to each well and PT-biotin (10 μl containing 10 ng in PBS) was then added to the microtiter wells. […] Horseradish peroxidase-conjugated avidin (100 μl, 1/3000 dilution in PBST to a concentration of 0.3 μg/ml) was then added to the wells, and the plates were incubated at ambient temperature for 1 hour. […] Color development was recorded at 405 nm using a Titertek Multiskan MC plate reader. […] Binding assays for each peptide were done in duplicate. Binding inhibition experiments utilizing SNA-, WGA-, and MAL-biotin were performed as described above using 10 ng of each biotinylated lectin in PBS.
# (§2) Binding assays for each inhibitor concentration were done at least in duplicate, and the average value varied less than 15%.
# [6] = biological target: T3, ACS2P1-biotin binding to fetuin (Bordetella pertussis, UniProt P04978); settings: saccharide 8 mM in PBS; 0.1 μg ACS2P1-biotin; fetuin 3 μg/ml; + enhancement, − inhibition
# T3 construct: 2; ACS2P1-b; 9-23; made in house; host or cells: chemical synthesis
# [7] = biological target: T4, PT-biotin binding to asialofetuin (Bos taurus, UniProt P12763); experiment: PT-biotin binding to asialofetuin, binding inhibition assay; design: species or system Bordetella pertussis; settings: initial peptide screening
# T4 construct: made in house
# T4 sequence (P12763 19-359): T1 sequence (P12763 19-359)
# Protocol: as §1, §2
compound,measurement,setting,value
Ac-PQEQITQHGSPYGRC-NH2 [ACS2P1],"effect on DTH inflammatory response (footpad swelling 24 hours after challenge), in words",Balb/c mice [1],effective in reducing a DTH response in mice
same,Maximal Inhibitory Concentration for Greater than 50% Inhibition,[2],96 pg/mL
same,"competition for the binding of ACS2P1-biotin to asialofetuin, in words",[3],unable to compete for the binding of ACS2P1-biotin to asialofetuin
same,"DTH response (footpad swelling) on later re-challenge with OVA antigen, in words",Balb/c mice [4],reduced immune response
same,enhancement of PT-biotin binding to fetuin relative to control experiments in the absence of peptide,[5],~2 fold
CC(=O)N[C@H]1[C@H]([C@H](O)[C@H](O)CO)OC(O)(C(=O)O)C[C@@H]1O (stereo partly shown) [Sialic acid],Percent Changes in Binding Activity ACS2P1-biotin (n = 3),[6],−19 ± 6%
CC[C@H](C)[C@H](NC(=O)[C@@H](NC(=O)[C@@H]1CCCN1C(=O)[C@H](CCC(N)=O)NC(=O)CNC(=O)[C@H](CO)NC(=O)[C@H](CCCNC(=N)N)NC(=O)[C@@H](NC(=O)[C@@H](N)Cc1ccccc1)C(C)C)C(C)C)C(=O)NCC(=O)N[C@@H](C)C(=O)N[C@@H](CS)C(=O)N[C@H](C(=O)N[C@@H](CO)C(=O)N1CCC[C@H]1C(=O)N[C@@H](Cc1ccc(O)cc1)C(=O)N[C@@H](CC(=O)O)C(=O)NCC(=O)N[C@@H](CCCCN)C(=O)N[C@@H](Cc1ccc(O)cc1)C(=O)N[C@@H](Cc1c[nH]c2ccccc12)C(=O)N[C@@H](CO)C(=O)N[C@@H](CCSC)C(=O)N[C@@H](Cc1ccc(O)cc1)C(=O)N[C@@H](CO)C(=O)N[C@@H](CCCNC(=N)N)C(=O)N[C@@H](CC(C)C)C(=O)N[C@@H](CCCNC(=N)N)C(=O)N[C@@H](CCCCN)C(=O)N[C@@H](CCSC)C(=O)N[C@@H](CC(C)C)C(=O)N[C@@H](Cc1ccc(O)cc1)C(=O)O)[C@@H](C)O [Peptide S2P6],inhibition of PT biotin binding to asialofetuin,[7],15-20%
same,inhibition of PT biotin binding to fetuin,[5],15-20%
CC[C@H](C)[C@H](NC(=O)[C@H](CS)NC(=O)[C@H](Cc1ccccc1)NC(=O)[C@@H](NC(=O)[C@@H](NC(=O)[C@H](CCCCN)NC(=O)[C@H](CC(C)C)NC(=O)[C@H](CC(=O)O)NC(=O)[C@H](Cc1ccccc1)NC(=O)[C@H](C)NC(=O)CN)[C@@H](C)O)[C@@H](C)O)C(=O)N[C@@H](CCSC)C(=O)N[C@H](C(=O)N[C@H](C(=O)N[C@@H](CCCNC(=N)N)C(=O)N[C@@H](CC(N)=O)C(=O)N[C@H](C(=O)NCC(=O)N[C@@H](CCC(N)=O)C(=O)N1CCC[C@H]1C(=O)N[C@@H](C)C(=O)O)[C@@H](C)O)[C@@H](C)O)[C@@H](C)O [Peptide S2P3],inhibition of PT biotin binding to asialofetuin,[7],15-20%
same,inhibition of PT biotin binding to fetuin,[5],15-20%

# Source: US20020054880A1, “Anti-inflammatory, tolerogenic and immunoinhibiting properties of carbohydrate binding-peptides” (priority 1992, published 2002)
